According to publication PMC12665141:
These are yes or no findings as the source states them, for the method shown. For some assays here: In cells and extracts the contact can be indirect. Some results given as binding are weak or reduced against the parent protein; the word gives no strength.

Protein sequences, listed by entry. Tags and fused reporters are not part of them.
UniProt P26039: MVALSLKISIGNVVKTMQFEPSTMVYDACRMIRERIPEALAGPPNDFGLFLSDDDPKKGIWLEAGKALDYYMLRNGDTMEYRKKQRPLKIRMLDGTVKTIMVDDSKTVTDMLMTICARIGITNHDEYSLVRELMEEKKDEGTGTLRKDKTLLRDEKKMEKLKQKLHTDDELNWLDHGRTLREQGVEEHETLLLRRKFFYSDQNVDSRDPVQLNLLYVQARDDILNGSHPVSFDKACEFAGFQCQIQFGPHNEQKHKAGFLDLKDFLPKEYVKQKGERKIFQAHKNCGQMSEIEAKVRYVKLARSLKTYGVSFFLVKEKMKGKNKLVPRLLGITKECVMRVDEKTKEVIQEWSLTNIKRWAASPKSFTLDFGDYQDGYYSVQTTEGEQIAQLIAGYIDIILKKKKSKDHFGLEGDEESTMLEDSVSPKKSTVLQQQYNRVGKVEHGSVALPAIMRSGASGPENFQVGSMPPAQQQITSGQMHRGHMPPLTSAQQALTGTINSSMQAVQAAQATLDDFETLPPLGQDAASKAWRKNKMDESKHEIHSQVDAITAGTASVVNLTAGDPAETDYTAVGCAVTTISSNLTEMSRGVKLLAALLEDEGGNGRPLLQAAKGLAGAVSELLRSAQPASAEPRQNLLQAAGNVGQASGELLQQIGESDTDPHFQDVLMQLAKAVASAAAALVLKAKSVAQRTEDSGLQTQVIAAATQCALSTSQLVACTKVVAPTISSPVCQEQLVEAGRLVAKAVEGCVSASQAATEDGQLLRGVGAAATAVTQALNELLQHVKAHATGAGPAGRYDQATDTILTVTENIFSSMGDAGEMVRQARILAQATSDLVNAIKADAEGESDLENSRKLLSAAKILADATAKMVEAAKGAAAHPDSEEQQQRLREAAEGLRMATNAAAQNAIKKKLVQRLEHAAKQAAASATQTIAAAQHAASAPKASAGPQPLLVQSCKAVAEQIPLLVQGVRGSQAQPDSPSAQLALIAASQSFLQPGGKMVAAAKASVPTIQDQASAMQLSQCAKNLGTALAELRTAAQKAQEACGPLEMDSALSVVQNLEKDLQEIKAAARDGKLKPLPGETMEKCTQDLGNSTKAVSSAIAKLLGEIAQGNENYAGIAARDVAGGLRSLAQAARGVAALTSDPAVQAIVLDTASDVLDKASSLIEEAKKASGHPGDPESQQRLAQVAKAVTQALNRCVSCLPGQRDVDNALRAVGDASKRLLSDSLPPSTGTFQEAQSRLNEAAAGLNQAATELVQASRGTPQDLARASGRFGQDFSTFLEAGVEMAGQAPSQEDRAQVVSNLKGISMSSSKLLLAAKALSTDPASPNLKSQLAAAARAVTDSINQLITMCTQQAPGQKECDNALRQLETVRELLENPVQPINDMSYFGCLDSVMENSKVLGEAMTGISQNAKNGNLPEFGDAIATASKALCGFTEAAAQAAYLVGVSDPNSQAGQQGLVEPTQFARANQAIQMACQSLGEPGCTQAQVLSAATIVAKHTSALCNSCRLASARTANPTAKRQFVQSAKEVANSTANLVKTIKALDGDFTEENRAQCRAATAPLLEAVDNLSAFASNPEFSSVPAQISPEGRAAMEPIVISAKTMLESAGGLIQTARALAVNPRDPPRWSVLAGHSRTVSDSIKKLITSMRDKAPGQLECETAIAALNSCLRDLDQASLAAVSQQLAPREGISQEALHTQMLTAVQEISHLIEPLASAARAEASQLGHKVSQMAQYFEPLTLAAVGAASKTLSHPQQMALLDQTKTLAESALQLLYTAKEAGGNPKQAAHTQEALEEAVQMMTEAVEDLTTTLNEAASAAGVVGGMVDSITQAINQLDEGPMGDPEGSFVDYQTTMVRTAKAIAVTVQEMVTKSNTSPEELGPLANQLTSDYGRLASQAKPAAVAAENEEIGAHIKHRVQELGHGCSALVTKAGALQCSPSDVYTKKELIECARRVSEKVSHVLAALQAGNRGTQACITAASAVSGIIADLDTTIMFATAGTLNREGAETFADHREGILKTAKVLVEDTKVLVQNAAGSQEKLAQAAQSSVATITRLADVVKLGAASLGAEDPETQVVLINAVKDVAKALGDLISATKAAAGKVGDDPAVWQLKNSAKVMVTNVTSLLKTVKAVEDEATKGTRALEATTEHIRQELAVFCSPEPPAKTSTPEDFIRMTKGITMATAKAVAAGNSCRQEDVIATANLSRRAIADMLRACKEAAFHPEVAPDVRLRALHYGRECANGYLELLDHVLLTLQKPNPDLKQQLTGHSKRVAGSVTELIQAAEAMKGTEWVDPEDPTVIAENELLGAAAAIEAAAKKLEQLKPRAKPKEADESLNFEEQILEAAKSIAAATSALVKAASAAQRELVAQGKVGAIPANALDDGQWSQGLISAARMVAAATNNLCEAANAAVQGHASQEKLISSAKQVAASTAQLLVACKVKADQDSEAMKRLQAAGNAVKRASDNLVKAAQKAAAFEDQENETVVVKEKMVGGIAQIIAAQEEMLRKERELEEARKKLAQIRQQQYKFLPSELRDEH
UniProt P02340: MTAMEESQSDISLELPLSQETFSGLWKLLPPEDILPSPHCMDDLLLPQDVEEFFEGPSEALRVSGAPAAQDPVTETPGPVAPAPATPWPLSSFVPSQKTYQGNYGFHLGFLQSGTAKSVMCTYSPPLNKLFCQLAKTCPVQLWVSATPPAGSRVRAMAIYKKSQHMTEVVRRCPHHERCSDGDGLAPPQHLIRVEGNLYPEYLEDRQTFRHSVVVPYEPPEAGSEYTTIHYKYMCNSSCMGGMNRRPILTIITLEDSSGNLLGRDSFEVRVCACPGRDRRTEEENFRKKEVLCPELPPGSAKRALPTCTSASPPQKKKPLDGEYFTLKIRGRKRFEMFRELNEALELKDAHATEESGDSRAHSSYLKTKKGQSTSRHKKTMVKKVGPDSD

Legend:
[1] = molecular target: talin1 (mouse (endogenous in MLO-Y4)) (UniProt P26039); test: co-IP; MLO-Y4 cell extracts (RIPA buffer) incubated overnight with anti-talin1 antibody, Protein A/G magnetic beads, Western blot for p53
talin1-Flag = talin1-Flag (UniProt P26039); test: pull-down; purified talin1-Flag and p53-His incubated at 4 °C for 2 h, captured with Flag beads, eluted with Flag peptide, SDS-PAGE and Coomassie staining; 25 mM HEPES pH 7.5, 150 mM NaCl; both purified

Substance	binding [1]	binding (talin1-Flag)
p53 (from UniProt P02340 1-390)	binds	–
p53-His (from UniProt P02340 1-390)	–	binds
